Among the data in paper PMC7713163 are binding values, retold here.

By UniProt entry, the sequences of proteins in these tests, tags left out. Where a name states a change or a piece, a line headed by the entry shows the natural chain unless it says otherwise.
UniProt Q13616: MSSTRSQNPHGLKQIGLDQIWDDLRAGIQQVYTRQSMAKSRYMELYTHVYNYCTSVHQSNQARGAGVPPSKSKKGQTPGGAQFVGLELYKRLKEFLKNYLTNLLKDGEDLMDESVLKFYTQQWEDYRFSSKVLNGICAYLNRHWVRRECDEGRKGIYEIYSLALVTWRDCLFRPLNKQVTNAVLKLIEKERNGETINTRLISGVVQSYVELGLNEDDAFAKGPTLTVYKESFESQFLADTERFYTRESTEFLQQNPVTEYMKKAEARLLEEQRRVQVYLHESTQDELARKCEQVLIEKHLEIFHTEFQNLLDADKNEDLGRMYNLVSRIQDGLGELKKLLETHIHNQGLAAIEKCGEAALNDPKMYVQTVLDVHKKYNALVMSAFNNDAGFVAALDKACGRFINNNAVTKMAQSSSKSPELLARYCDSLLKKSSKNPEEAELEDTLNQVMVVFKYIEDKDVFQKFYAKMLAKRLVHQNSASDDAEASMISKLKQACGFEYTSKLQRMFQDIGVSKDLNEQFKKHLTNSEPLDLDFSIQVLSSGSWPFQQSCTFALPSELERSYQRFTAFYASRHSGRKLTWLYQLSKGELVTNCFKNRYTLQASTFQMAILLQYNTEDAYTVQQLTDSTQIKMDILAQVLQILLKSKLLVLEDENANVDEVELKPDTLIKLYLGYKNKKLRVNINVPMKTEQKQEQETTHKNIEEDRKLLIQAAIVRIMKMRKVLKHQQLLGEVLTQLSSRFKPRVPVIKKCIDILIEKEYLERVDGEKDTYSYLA
UniProt Q9NS23: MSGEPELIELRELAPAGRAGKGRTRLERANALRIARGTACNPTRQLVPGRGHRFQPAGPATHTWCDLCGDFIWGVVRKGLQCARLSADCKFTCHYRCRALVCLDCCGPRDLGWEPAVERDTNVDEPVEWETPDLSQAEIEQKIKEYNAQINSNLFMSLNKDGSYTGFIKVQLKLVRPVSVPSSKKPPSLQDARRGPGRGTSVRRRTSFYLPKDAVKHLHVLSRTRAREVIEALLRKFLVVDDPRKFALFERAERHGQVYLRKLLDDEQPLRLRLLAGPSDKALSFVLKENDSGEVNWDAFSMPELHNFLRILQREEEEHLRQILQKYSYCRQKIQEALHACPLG
UniProt P63208: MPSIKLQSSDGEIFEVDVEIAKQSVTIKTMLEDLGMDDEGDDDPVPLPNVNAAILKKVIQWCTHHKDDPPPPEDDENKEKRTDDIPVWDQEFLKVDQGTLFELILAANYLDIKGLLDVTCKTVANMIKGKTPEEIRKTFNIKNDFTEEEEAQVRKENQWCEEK

The target of test [1] is Cullin-1 (human (in human CRC cells)) (UniProt Q13616). The experiment in a line: co-IP; about 800 ug protein incubated with indicated antibodies at 4 °C overnight, protein A or G beads for a further 2 h at 4 °C, beads washed three times, bound proteins detected by western blot; cells and precipitating antibody not given. (In general: In western blotting, separated proteins are transferred to a membrane and probed.)

Test [2] addresses RASSF1 (human (in human CRC cells)) (UniProt Q9NS23). Described as above.

Results are given in words; binding and its absence hold for the method and conditions named. Binding seen in cells or lysates may run through a third protein. Binding calls can cover weak binding; strength is not graded here.

Turning to RASSF1 (from UniProt Q9NS23-2), the binding entry in test [1] is reported as “binds”.

In the case of “SKP1 (S-Phase Kinase Associated Protein 1) (from UniProt P63208 1-163)”, the binding entry in test [2] was “binds”.
